According to BindingDB's records for doi:10.1007/pl00005133 (Eli Lilly, 1998):
pKi: −log10 of the molar value. Where “and” joins values, the source holds several entries; their conditions need not be identical. Equal values may be shown once.

By UniProt entry, the sequences of proteins in these tests, tags left out.
UniProt P41595, whole entry: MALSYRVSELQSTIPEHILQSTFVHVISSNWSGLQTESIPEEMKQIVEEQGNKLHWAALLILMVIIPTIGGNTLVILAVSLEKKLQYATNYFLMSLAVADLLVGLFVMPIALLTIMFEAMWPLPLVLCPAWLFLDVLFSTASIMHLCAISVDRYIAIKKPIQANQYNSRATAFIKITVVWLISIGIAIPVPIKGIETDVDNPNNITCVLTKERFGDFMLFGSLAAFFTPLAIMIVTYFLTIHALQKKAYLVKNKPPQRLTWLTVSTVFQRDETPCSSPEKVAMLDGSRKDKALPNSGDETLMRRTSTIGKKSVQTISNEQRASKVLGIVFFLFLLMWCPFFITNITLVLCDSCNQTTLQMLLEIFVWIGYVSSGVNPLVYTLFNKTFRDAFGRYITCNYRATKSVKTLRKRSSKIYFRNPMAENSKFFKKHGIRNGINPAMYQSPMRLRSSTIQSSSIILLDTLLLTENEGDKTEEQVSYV

Target: 5-hydroxytryptamine receptor 2B (Homo sapiens, UniProt P41595)

CC[C@@H](CO)NC(=O)[C@@H]1C=C2c3cccc4c3c(cn4C)C[C@H]2N(C)C1
pKi: 8.82 and 9.19
